Laboratory results from the supplement of paper PMC9135407.
Counter-ions that a name gives are not always drawn. ± gives the standard deviation of the averaged measurements. This is one part of the list. Plates or batches differ in their baseline, so values are only roughly comparable.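 Assay uses culture-activated primary human stellate myofibroblasts; lipid droplet recovery indicates inactivation. Measured: proportion of Hoechst-counted cells over a plate-specific Bodipy cutoff, duplicate wells, DMSO and nortriptyline as per-plate negative and positive controls. A hit scores, control-normalized, above the plate's top-tenth-percentile nortriptyline wells or ranks among its three best wells. Final well concentrations not reported.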

Tested on: primary human hepatic stellate cells (donor 1)
Experiment: percent Bodipy-positive cells; higher = more lipid droplet accumulation
Settings: 48 h
[1] = library stock concentration: 3.33 mM
[2] = library stock concentration: 5.8 mM
[3] = library stock concentration: 10 mM
[4] = library stock concentration: 1 mM

SMILES: CCCC(=O)Oc1ccc2[nH]c(C(=O)c3cc4ccccc4[nH]3)cc2c1 [PDGF Receptor Tyrosine Kinase Inhibitor II]
- percent Bodipy-positive cells [1]: 7.72 ± 1.4%

SMILES: Nc1ncnc2c1ncn2[C@@H]1O[C@H](COP(=O)(O)O)[C@@H](O)[C@H]1O [Adenosine phosphate]
- percent Bodipy-positive cells [2]: 10.7 ± 0.19%
- percent Bodipy-positive cells [3]: 13.6 ± 6.5%

SMILES: NC(=O)c1ncn([C@@H]2O[C@H](CO)[C@@H](O)[C@H]2O)c1N
- percent Bodipy-positive cells [3]: 32.6 ± 1.6%

SMILES: NC(=O)c1ncn([C@@H]2O[C@H](CO)[C@@H](O)[C@H]2O)c1N [Acadesine]
- percent Bodipy-positive cells [1]: 18.2 ± 4.8%
- percent Bodipy-positive cells [3]: 13.9 ± 7.9%

SMILES: O=C(CCSCc1ccco1)NNC(=O)N1Cc2ccccc2Oc2ccc(Cl)cc21
- percent Bodipy-positive cells [3]: 16.4 ± 0.21%

SMILES: CC1=C(/C=C/C(C)=C/C=C/C(C)=C/C(=O)Nc2ccc(O)cc2)C(C)(C)CCC1 [Fenretinide]
- percent Bodipy-positive cells (library stock concentration: 5.1 mM): 5.79 ± 1.4%
- percent Bodipy-positive cells [3]: 4.23 ± 1.6%

SMILES: CC1=C(/C=C/C(C)=C/C=C/C(C)=C/C(=O)Nc2ccc(O)cc2)C(C)(C)CCC1 [Retinoic acid p-hydroxyanilide]
- percent Bodipy-positive cells [3]: 70.7 ± 7%

SMILES: O=C(O)CCC/C=C\C[C@@H]1[C@@H](/C=C/[C@H](O)CCc2ccccc2)[C@H](O)C[C@@H]1O [15(R)-17-phenyl trinor Prostaglandin F2.alpha.]
- percent Bodipy-positive cells [4]: 18.2 ± 3.5%

SMILES: Nc1ccc(-c2cccc3c(=O)cc(N4CCOCC4)oc23)cc1
- percent Bodipy-positive cells [3]: 10.7 ± 6%

SMILES: CC(c1cc2ccccc2s1)N(O)C(N)=O (stereo not given)
- percent Bodipy-positive cells [3]: 3.73 ± 2.9%

SMILES: CC(c1cc2ccccc2s1)N(O)C(N)=O (stereo not given) [Zileuton]
- percent Bodipy-positive cells [1]: 11.4 ± 3.2%
- percent Bodipy-positive cells [3]: 14.8 ± 3.9%

SMILES: Cc1ccc(C(=O)Nc2ccc(CN3CCN(C)CC3)c(C(F)(F)F)c2)cc1C#Cc1cnc2cccnn12
- percent Bodipy-positive cells [1]: 98.891 ± 0.056%

SMILES: C[C@@H]1C(=O)O[C@H]2C[C@@]34[C@H]5C[C@@H](C(C)(C)C)[C@]36[C@@H](OC(=O)[C@@H]6O)O[C@@]4(C(=O)O5)[C@]21O [Ginkgolide a]
- percent Bodipy-positive cells (library stock concentration: 4.9 mM): 7.93 ± 0.91%
- percent Bodipy-positive cells [3]: 33.7 ± 4.5%

SMILES: C[C@@H]1C(=O)O[C@H]2C[C@@]34[C@H]5C[C@@H](C(C)(C)C)[C@]36[C@@H](OC(=O)[C@@H]6O)O[C@@]4(C(=O)O5)[C@]21O [Ginkgolide A]
- percent Bodipy-positive cells: 42.6 ± 18%
- percent Bodipy-positive cells [1]: 8.3 ± 1.9%
- percent Bodipy-positive cells [3]: 8.83 ± 1.7%

SMILES: CC1=C(C(=O)OC2CCCCC2)C(c2ccc([N+](=O)[O-])cc2)C2=C(CC(C)(C)CC2=O)N1 (stereo not given)
- percent Bodipy-positive cells [1]: 79.2 ± 2%

SMILES: CC[N+](C)(CC)CC(=O)Nc1c(C)cccc1C [N-Methyllidocaine iodide]
- percent Bodipy-positive cells [3]: 8.93 ± 5.1%

SMILES: O=C(O)c1cc(O)c2c(c1)[C@H]([C@H]1c3cc(C(=O)O)cc(O)c3C(=O)c3c(O[C@@H]4O[C@H](CO)[C@@H](O)[C@H](O)[C@H]4O)cccc31)c1cccc(O[C@@H]3O[C@H](CO)[C@@H](O)[C@H](O)[C@H]3O)c1C2=O [Sennoside a]
- percent Bodipy-positive cells (library stock concentration: 2.3 mM): 16 ± 2%
- percent Bodipy-positive cells [3]: 36.9 ± 4%

SMILES: O=C(Cc1ccccc1Nc1c(Cl)cccc1Cl)Oc1ccc(-c2cc(=S)ss2)cc1
- percent Bodipy-positive cells [4]: 9.01 ± 2.4%

SMILES: CC(=O)Oc1cc(C(C)C)c(OCCN(C)C)cc1C [Moxisylyte hydrochoride]
- percent Bodipy-positive cells: 36.4 ± 22%

SMILES: CC(=O)Oc1cc(C(C)C)c(OCCN(C)C)cc1C [Moxisylyte hydrochloride]
- percent Bodipy-positive cells [3]: 29.6 ± 6.4%

SMILES: Br.NC(=O)C(c1ccccc1)(c1ccccc1)[C@@H]1CCN(CCc2ccc3c(c2)CCO3)C1 [Darifenacin HBr]
- percent Bodipy-positive cells [3]: 94.013 ± 0.04%

SMILES: O=C1c2c(O)cc(O)cc2O[C@H](c2ccc(O)c(O)c2)[C@H]1O
- percent Bodipy-positive cells [3]: 8.56 ± 4.9%

SMILES: O=C1c2c(O)cc(O)cc2OC(c2ccc(O)c(O)c2)C1O (stereo not given) [Taxifolin (Dihydroquercetin)]
- percent Bodipy-positive cells [1]: 9.75 ± 0.41%
- percent Bodipy-positive cells [3]: 11.8 ± 2.9%

SMILES: O=C1c2c(O)cc(O)cc2OC(c2ccc(O)c(O)c2)C1O (stereo not given) [(?)-Taxifolin]
- percent Bodipy-positive cells [3]: 9.62 ± 0.46%

SMILES: CCCCC/C=C\C/C=C\C/C=C\CCCCC(=O)OC [.gamma.-Linolenic Acid methyl ester]
- percent Bodipy-positive cells [4]: 16.4 ± 11%

SMILES: COc1ccc(Nc2nccc(NCCO)n2)cc1 [Cardiogenol C hydrochloride]
- percent Bodipy-positive cells [3]: 6.8 ± 0.96%

SMILES: COc1ccc(Nc2nccc(NCCO)n2)cc1 [Cardiogenol C (hydrochloride)]
- percent Bodipy-positive cells [4]: 14.7 ± 4.7%

SMILES: CN(C)CCCOc1nn(Cc2ccccc2)c2ccccc12 [Benzydamine HCl]
- percent Bodipy-positive cells [1]: 29.1 ± 0.47%

SMILES: CN(C)CCCOc1nn(Cc2ccccc2)c2ccccc12 [Benzydamine hydrochloride]
- percent Bodipy-positive cells: 71.9 ± 4.5%
- percent Bodipy-positive cells [2]: 72.8 ± 20%

SMILES: CN(C)CCCN1c2ccccc2Sc2ccccc21.Cl [Promazine hydrochloride]
- percent Bodipy-positive cells [3]: 85.8 ± 1.4%

SMILES: O=C1c2ccccc2C(=O)c2c(NCCc3ccc(O)cc3)ccc(NCCc3ccc(O)cc3)c21
- percent Bodipy-positive cells [3]: 54.6 ± 1.2%

SMILES: CC(C)NCCN(C(C)C)S(=O)(=O)c1ccc(Cl)cc1Cl
- percent Bodipy-positive cells [3]: 47.8 ± 2.8%

SMILES: FC(F)(F)c1ccc(/C=C/c2nc(COc3ccc(CCCCn4ccnn4)cc3)co2)cc1
- percent Bodipy-positive cells [3]: 10.4 ± 3%

SMILES: FC(F)(F)c1ccc(/C=C/c2nc(COc3ccc(CCCCn4ccnn4)cc3)co2)cc1 [Mubritinib (TAK 165)]
- percent Bodipy-positive cells [1]: 6.76 ± 0.37%
- percent Bodipy-positive cells [3]: 14.4 ± 3.2%

SMILES: CCCCC[C@](C)(O)/C=C/[C@H]1[C@H](O)CC(=O)[C@@H]1C/C=C\CCCC(=O)O [15(S)-15-methyl Prostaglandin E2]
- percent Bodipy-positive cells [4]: 13.4 ± 2.7%

SMILES: CC(Oc1cc(-c2cnn(C3CCNCC3)c2)cnc1N)c1c(Cl)ccc(F)c1Cl [(S)-crizotinib]
- percent Bodipy-positive cells [1]: 85.5 ± 5.6%
- percent Bodipy-positive cells [3]: 100%

SMILES: CCCCC(=O)O[C@]1(C(=O)CO)[C@@H](C)C[C@H]2[C@@H]3CCC4=CC(=O)C=C[C@]4(C)[C@@]3(F)[C@@H](O)C[C@@]21C [Betamethasone valerate]
- percent Bodipy-positive cells [3]: 15.1 ± 7.4%

SMILES: Cc1nc(-c2ccccc2)c(-c2ccncc2)o1
- percent Bodipy-positive cells [1]: 17.9 ± 12%
